Measurements reported in patent US6380182B1, “Methods and compositions controlling biofouling using sulfamic acids” (priority 1997, dated 2002).
Several values for one entry are separate records, joined by “and”; a condition that tells them apart may be missing. Equal entries are not always repeated. The name of at least one read-out is uncertain.

Tested on: Bacteria of the genera Bacillus, Flavobacterium, and Pseudomonas
Test: Bioreactor bacterial adhesion test, visual biofilm scoring of crystal violet stained slides
Format: cell-based
Design: key: 0=essentially none; 1=scant; 2=slight; 3=moderate; 4=heavy
Conditions: 100 ppm, acetone solvent, 3 days, average of four replicate slides, 0-2 considered effective
Excerpt: Test Method: The following method effectively defines the ability of a chemical compound to inhibit bacterial adhesion, or attack the formation of existing attached microorganisms, on various types of surfaces. As an overview, bioreactors were constructed in which approximately 1 in.×3 in. slides (glass or stainless steel) were fixed to the edge of the bioreactor. The lower ends (approx. 2 in.) of the slides dipped into a bacterial growth medium (pH 7) within the bioreactor which contained a known concentration of the test chemical. Following inoculation with known bacterial species, the test solutions were stirred continuously for 3 days. Unless otherwise indicated in the results below, the medium within the bioreactor was turbid by the end of three days. […] A staining procedure was then used on the slides in order to determine the amount of bacteria attached to the surfaces of the slides.
Construction of Bioreactors: The bioreactors comprised a 400 ml glass beaker over which a lid (cover from a standard 9 cm diameter glass petri dish) was placed. With the lid removed, slides of the material of choice were taped at one end with masking tape and suspended inside the bioreactor from the top edge of the beaker. This allows the slides to be submerged within the test medium. Typically, four slides (replicates) were uniformly spaced around the bioreactor. The score presented below are the average of the four replicates. A magnetic stirring bar was placed in the bottom of the unit, the lid positioned, and the bioreactor autoclaved. Two different types of material were used as slides, stainless steel as a metal and glass as a hydrophillic surface.
Bacterial Growth Medium: The liquid medium utilized in the bioreactors was described previously by Delaquis, et al., “Detachment Of Pseudomonas fluorescens From Biofilms On Glass Surfaces In Response To Nutrient Stress”, Microbial Ecology 18:199-210, 1989. The composition of the medium was:
The medium was autoclaved and then allowed to cool. If a sediment formed in the autoclaved medium, the medium was resuspended by shaking before use.
Preparation of Bacterial Inocula: Bacteria of the genera Bacillus, Flavobacterium, and Pseudomonas were isolated from a paper mill slime deposit and maintained in continuous culture. The test organisms were separately streaked onto plate count agar and incubated at 30° C. for 24 hours. With a sterile cotton swab, portions of the colonies were removed and suspended in sterile water. The suspensions were mixed very well and were adjusted to an optical density of 0.858 (Bacillus), 0.625 (Flavobacterium), and 0.775 (Pseudomonas) at 686 nm.
Biofilm Production/Chemical Testing: To four separate bioreactors was added 200 ml of the sterile medium prepared above. Chemicals to be evaluated as biodispersants were first prepared as a stock solution (40 mg/2 ml) using either water or a 9:1 acetone: methanol mixture (ac/MeOH) as a solvent. A 1.0 ml aliquot of the stock solution was added to the bioreactor using moderate, continuous magnetic stirring. This provided an initial concentration of 100 ppm for the test compound. One bioreactor (Control) contains no test compound. Aliquots (0.5 ml) from each of the three bacterial suspensions were then introduced into each bioreactor. The bioreactors were then provided with continuous stirring for three days to allow for an increase in bacterial population and deposition of cells onto the surfaces of the slides. […]

SMILES	Score (biofilm score) (Glass slides)	Score (biofilm score) (SS (stainless steel) slides)
CCCCCNS(=O)(=O)O [b, amyl sulfamic acid]	3 (3×) and 1	
CCCCNS(=O)(=O)O [a, butyl sulfamic acid]	1 and 2 (3×)	
O=S(=O)(O)N(C1CCCCC1)C1CCCCC1 [h, dicyclohexyl sulfamic acid]		2.25 and 2.00
O=S(=O)(O)NN1CCOCC1 [i, morpholino sulfamic acid]		0.25 and 3
CCCCCCCCNS(=O)(=O)O [c, octyl sulfamic acid]	1 and 2 (2×)	
